Laboratory results reported in article PMC9599728.
Negatives hold for the conditions tested. At least one verdict rests on a figure or table, not on a statement of the authors. For part of these data: The exact form of at least one protein or probe is not confirmed.

The chains behind the UniProt entries cited, without tags or fusion partners. Residues count along the entry.
UniProt P07288, 25-261: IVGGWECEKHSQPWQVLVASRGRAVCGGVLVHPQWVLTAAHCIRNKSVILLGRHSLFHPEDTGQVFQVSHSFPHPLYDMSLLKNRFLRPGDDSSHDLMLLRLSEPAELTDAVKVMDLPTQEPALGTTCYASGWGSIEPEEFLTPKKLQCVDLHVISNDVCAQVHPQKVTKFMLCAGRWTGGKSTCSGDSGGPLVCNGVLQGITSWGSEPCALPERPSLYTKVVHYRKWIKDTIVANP
UniProt P02771, 19-609: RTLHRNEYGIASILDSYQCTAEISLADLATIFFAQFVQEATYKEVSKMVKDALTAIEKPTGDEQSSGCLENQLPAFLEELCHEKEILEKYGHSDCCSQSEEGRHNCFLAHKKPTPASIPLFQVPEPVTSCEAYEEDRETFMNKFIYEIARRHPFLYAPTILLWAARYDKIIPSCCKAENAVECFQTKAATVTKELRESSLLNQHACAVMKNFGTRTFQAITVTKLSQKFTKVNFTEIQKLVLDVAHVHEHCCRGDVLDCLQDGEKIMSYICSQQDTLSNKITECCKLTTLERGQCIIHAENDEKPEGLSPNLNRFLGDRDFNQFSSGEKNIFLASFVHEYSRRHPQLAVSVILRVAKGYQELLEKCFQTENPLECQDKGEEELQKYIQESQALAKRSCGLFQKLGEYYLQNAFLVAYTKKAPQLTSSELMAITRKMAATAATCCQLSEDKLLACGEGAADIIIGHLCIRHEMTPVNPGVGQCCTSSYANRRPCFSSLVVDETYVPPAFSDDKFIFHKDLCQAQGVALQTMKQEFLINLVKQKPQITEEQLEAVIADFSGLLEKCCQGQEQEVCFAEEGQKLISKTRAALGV

Tests used:
Test in all cases: sandwich FLISA (antibody capture, aptamer nanoparticle probe)
prostate antigen (PSA) = prostate antigen (PSA) (UniProt P07288); details: 25 ng/mL, signal equal to blank, plate carries anti-CEA antibody, so aptamer not tested alone; 5'-NH2; coupled by glutaraldehyde to CP/ZIF-8/PDA nanoparticles; CEA capture 37 C 1 h, aptamer probe room temperature 1 h; washes in PBS 10 mM pH 7.4; probe blocked with 1% BSA; read-out with 4 mM OPD in 10 mM HAc-NaAc pH 5.5, 3 h; commercial protein; single-stranded DNA
alpha-fetoprotein (AFP) = alpha-fetoprotein (AFP) (UniProt P02771); details: 25 ng/mL, signal equal to blank, plate carries anti-CEA antibody, so aptamer not tested alone; 5'-NH2; coupled by glutaraldehyde to CP/ZIF-8/PDA nanoparticles; CEA capture 37 C 1 h, aptamer probe room temperature 1 h; washes in PBS 10 mM pH 7.4; probe blocked with 1% BSA; read-out with 4 mM OPD in 10 mM HAc-NaAc pH 5.5, 3 h; commercial protein; single-stranded DNA
glycoantigen 125 (CA125) = glycoantigen 125 (CA125) (UniProt Q8WXI7); details: 25 IU/mL, signal equal to blank, plate carries anti-CEA antibody, so aptamer not tested alone; 5'-NH2; coupled by glutaraldehyde to CP/ZIF-8/PDA nanoparticles; CEA capture 37 C 1 h, aptamer probe room temperature 1 h; washes in PBS 10 mM pH 7.4; probe blocked with 1% BSA; read-out with 4 mM OPD in 10 mM HAc-NaAc pH 5.5, 3 h; commercial protein; single-stranded DNA

Measured: binding result

TTTTATACCAGCTTATTCAATT [CEA aptamer]
no binding: all assays above
